Earlier results as cited in patent publication US20250170132A1, “SALTS AND POLYMORPHIC FORMS OF MENIN INHIBITORS AND PHARMACEUTICAL COMPOSITIONS THEREOF” (Syndax Pharmaceuticals, Inc., priority 2023, published 2025).
At least one structure is not confirmed: it was looked up by name or label, or the drawing left a doubt.

Conditions: cited from earlier work

In the case of `COC(=O)[C@H](Cc1ccccc1)NC(=O)[C@H](CC(=O)O)NCCCc1ccc(OC)c(O)c1` [advantame], the “FDA acceptable daily intake (ADI) limit” value is listed as 32.8 mg/kg and the maximum aqueous solubility is listed as 0.09 % w/v.
